Results are given in words; binding and its absence hold for the method and conditions named. Binding seen in cells or lysates may run through a third protein. These calls come from enrichment with a bait or labelling near it, and not all partners need be listed. For some assays here: A no says only that the protein was not detected with the bait.
B1: HrcA (MXAN_6726) (protein, UniProt Q1CXN0 1-343)
chain: MSEELGEREKEVLRAVVQEYISTGGPVGSQQLTRRPGFEVSSATMRNVLADLEELGFLEKPHTSAGRVPTDQGYRFYVDTLVKLKDPTPRDRELIHAGLAHEADLAEMLGEASRILHSLTRHAGVVVAPRPESAVFRRIEFVRLREDRVLAILVGQSGQVHNKAITVEFPITSDELLKASNYLSELLREVPLESARERIRAEMDQEQALYNALTAKALKLGAAATDLASTERMLIQGTGSFFEQPEFADVERMRALFRALDEKHKLLSLLDRVQVANEMQIFIGAESDFSAAGDVTVIASPYGNQEQVLGTVGVIGPTRMDYRRVIPLVNFTAQVLSRVLEKV
B2: RNA polymerase sigma 70 factor (MXAN_7454) (protein, UniProt Q1CVL4 1-212)
chain: MVSSIFPAPDVGHFVDPVGPSRRGPLSDDTSAETGPWLARFHAGDARVLNACYRDHFDTVYRAAVRVLPAVDAETVVHDVFLRLVSDEAARRSFQGGSLAGWLHTLSHNLAVDRVRRQRRESDALAQLAVESSASEEPTPPEPGLDASFLLERFRQESLPPKWAPVFEARFVLQLSQREAAAALRMRRTTLAYQELRVRQLLKKFLLTPEAR
B3: transcriptional regulator (MXAN_1757) (protein, UniProt Q1DBG6 1-314)
chain: MQVLIVNTSLFPHLQTFLAVARTRSFSAAARDLGISRSAVSQSVRLLEGKLRVPLVARTTRSVSLTEAGRRLVESAGPAVTQVQAALTQASAKPGEVVGRVRLTVPRAAFHFVIEPVLPKFRERHPRIEVDLVFEDRMVDLVGEGFDAGVRLSEYVERDMVSVRLTDAFRFIVVGSPTYLGRHGTPGRPEDLLEHECLTFRSSTTGSLYAWEFERGRRTWRVPVRGSLVVNDGLICIRWAEQGLGLAYVMEPLVGEQLRKGSLQRVLEPYAATVPGFFLYYPSRAQSSAPLRLFVETVRELTRKPPVATKQLGP
B4: sigma 54 transcriptional regulator (MXAN_0907) (protein, UniProt Q1DDV5 1-607)
chain: MAHSQPSARDTRPLGSAPESSDSGASYLLVLEGDSTSRFALPAEGVVLVGRDEQADLCLRDDSVSRRHARLVLTEEGARLVDLGSHNGTTLNGRPVDTAQPLLSGDVVSFGAVVAVVRTRARAAPAHAPLQAERLMARLREEAERALRYGRPLTALVLALPQQGCVGHEAAEALLAAEAGPAEAAGWLDSSHLLWMMPEVSGEPGEDGLGERVGALLAACPQGRLGIATCPSDGCDAESLVAAARAAARTAVSGAWAPAAEGITRLTLADRTVLVADPAMAQLFTLLRRLAASELPVLVCGETGVGKENAAFAVHHWSPRSDKPFIAINCAALPEGLVESELFGHERGAFTGANTTRVGLLESAQGGTVFLDEVGELPPSAQAKLLRALEVRRITRVGDVRERPIDLRVVAATHRDLEAEVAAGRFREDLYFRLGAATVLLPPLRERPREVPLLARDFLARACQSLGREEMELSAGTLYALSRHAWPGNVRELRNLMDYAAAAVPENVVEPHHLPSRLQPRGASAPAQDLGPPPAVAERVSPQKTRVPLAQEIRDLERRRMQEALDEAEGVQTRAAAMIGMPIRTFSFKLKQLGLQPRTSRKGPPIG

The chains behind the UniProt entries cited, without tags or fusion partners. Where a name states a change or a piece, a line headed by the entry shows the natural chain unless it says otherwise.
UniProt Q1D3Y4: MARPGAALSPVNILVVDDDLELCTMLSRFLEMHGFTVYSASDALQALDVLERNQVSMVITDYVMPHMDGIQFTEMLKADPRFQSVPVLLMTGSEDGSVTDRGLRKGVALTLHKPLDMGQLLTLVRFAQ

Tests used:
[1] = molecular target: 4468-D61V-MBP (Myxococcus xanthus DK1622) (UniProt Q1D3Y4); test: affinity purification with mass spectrometry; purified MBP-tagged MXAN_4468 (wild type, D61V or D61F) plus MBP filler mixed with the supernatant of sonicated DK1622 cells, 4°C for 4 h; washed on the column, eluted with 10 mM maltose; eluate identified by mass spectrometry; MBP plus filler and filler alone as controls; only the target purified
[2] = molecular target: MBP-MXAN_4468 (Myxococcus xanthus DK1622) (UniProt Q1D3Y4); test: as above

| Binder | binding [1] | binding [2] |
| --- | --- | --- |
| B1 | no binding | binds |
| B2 |  | binds |
| B3 |  | binds |
| B4 |  | binds |
